doi:10.1101/2021.05.13.443999
These are yes or no findings as the source states them, for the method shown. Binding seen in cells or lysates may run through a third protein. Some binding calls cover weakened binding; strength is not graded here.

Protein sequences, listed by entry. Tags and fused reporters are not part of them.
UniProt P14598: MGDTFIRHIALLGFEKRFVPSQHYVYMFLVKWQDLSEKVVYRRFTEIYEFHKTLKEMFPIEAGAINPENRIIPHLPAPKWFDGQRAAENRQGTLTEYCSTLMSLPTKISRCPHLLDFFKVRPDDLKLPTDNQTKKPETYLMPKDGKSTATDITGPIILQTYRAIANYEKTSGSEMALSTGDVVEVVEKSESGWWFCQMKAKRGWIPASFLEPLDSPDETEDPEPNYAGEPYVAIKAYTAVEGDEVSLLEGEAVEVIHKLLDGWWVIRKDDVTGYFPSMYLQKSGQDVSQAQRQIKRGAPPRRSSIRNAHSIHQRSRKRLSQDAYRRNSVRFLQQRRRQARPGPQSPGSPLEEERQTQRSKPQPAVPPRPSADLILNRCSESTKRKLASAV
UniProt F1M707: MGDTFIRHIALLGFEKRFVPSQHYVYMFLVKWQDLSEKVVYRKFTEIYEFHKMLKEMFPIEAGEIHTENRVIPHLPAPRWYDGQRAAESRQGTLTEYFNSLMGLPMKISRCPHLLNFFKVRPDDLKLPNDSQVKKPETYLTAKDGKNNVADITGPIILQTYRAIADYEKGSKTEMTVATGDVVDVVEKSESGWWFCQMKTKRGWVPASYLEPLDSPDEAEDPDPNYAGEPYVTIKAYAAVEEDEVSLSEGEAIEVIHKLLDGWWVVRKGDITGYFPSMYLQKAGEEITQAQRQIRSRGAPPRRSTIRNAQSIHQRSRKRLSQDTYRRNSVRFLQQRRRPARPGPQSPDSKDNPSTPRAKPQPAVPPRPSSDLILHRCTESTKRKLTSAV

Assays:
[1] = target: T1, NADPH oxidase 2 (NOX2) (human (endogenous in HEK-293 and in human midbrain)) (UniProt P04839); experiment: co-IP
T1 sequence: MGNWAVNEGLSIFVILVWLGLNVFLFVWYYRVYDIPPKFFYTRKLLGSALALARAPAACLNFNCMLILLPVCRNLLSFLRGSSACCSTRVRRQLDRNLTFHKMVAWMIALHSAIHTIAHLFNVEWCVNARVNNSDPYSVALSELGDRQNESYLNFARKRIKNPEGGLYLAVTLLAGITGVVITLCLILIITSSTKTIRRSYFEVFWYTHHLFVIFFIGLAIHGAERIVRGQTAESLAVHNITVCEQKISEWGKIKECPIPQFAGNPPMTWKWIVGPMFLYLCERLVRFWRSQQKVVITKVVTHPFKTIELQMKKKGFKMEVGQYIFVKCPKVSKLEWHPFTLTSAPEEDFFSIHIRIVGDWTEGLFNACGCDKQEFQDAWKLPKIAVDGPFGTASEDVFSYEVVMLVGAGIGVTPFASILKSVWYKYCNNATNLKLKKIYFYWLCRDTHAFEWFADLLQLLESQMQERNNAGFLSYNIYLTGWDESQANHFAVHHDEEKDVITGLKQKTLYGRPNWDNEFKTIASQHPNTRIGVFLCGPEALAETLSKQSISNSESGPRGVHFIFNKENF

[2] = target: T1, NADPH oxidase 2 (NOX2) (human (endogenous in HEK-293 and in human midbrain)); experiment: proximity ligation
[3] = target: NADPH oxidase 2 (NOX2) (rat) (rat (endogenous in rat substantia nigra)) (UniProt Q9ERL1); experiment: proximity ligation

Substance	binding [1]	binding [2]	binding [3]
p47^phox (from UniProt P14598 1-390)	binds	binds	–
p47^phox (rat) (from UniProt F1M707 1-389)	–	–	binds
